Results reported in PubChem BioAssay AID504444 (National Center for Advancing Translational Sciences (NCATS), 2011).
The campaign covered roughly 360,000 compounds. About 7,500 (2.1%) were called active. Inconclusive results, whose numbers are uncertain, are shown with a selection of clear calls. Calls come from the whole dose curve; as a rule, active = well fitted inhibition curve with a large enough effect; inconclusive = small, poorly fitted or top-dose-only effect, or effect the other way; inactive = flat fitted curve, though single readings scatter. A potency beside an inconclusive call is a rough fit, not a confirmed value.

Experiment: Nrf2 qHTS screen for inhibitors; note: nearly all actives have a fitted effect of over 60% in size
Conditions: A549 ARE-Fluc reporter, luciferase luminescence, 18-24 h; activity change, negative = inhibition: at 46 µM (top of the series)
Outline: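 Two sequential reads on A549 ARE_Fluc cells exposed to compound for 18-24 h: a CellTiter-Fluor fluorescence read for viability, then a luciferase luminescence read for Nrf2/ARE activity.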
% is set by controls: 0 for no effect and ±100 for the full control effect; potency is the fitted concentration of half-maximal effect.

Question: With `Cc1ccccc1Nc1nc(N)nc(CSc2nncn2C)n1` as the compound, how does the Potency read?
Answer: Its Potency is inconclusive: 29.1 µM [activator, single point].

Question: Which Potency does the source give for `O=C(CSc1nnc(-c2cc(-c3cccs3)nc3ccccc23)o1)NC1CCCCC1` here?
Answer: Its Potency is inconclusive: 10.3 µM [falling, partial curve, poor fit].

Question: For `Cc1ccc(Nc2ccc(C(=O)O)cc2[N+](=O)[O-])cc1`, which Potency is on record?
Answer: Its Potency is inconclusive: 18.4 µM [falling, single point].

Question: With `O=C(c1cccc(C(F)(F)F)c1)C1CCCN(C(=O)c2cc(C3CC3)[nH]n2)C1` (stereo unspecified) as the compound, how does the Potency read?
Answer: Its Potency is inconclusive: 32.6 µM [falling, partial curve, poor fit].

Question: With `COc1ccccc1Cc1nc(-c2ccc(C)cc2)no1` as the compound, how does the Potency read?
Answer: Its Potency is inconclusive: 7.31 µM [activator, partial curve, poor fit].

Question: For `COc1cccc(CNC(=O)Cn2c(=O)cc(C(F)(F)F)c3c(C)nn(C)c32)c1OC`, which “activity change, negative = inhibition” value is on record?
Answer: Its value is inactive: 0.289%.

Question: Which Potency does the source give for `CCn1c(=S)sc2c(=O)n(CC(=O)Nc3cccc(Cl)c3)c(C)nc21` here?
Answer: Its Potency is inconclusive: 18.4 µM [falling, partial curve, poor fit].

Question: For `CCOC(=O)c1ccc2c(c1)sc1nc(-c3ccc(OCC)cc3)cn12`, which Potency is on record?
Answer: The Potency was inconclusive: 2.31 µM [activator, full curve].

Question: With `CCOC(=O)c1c(NC(=S)NC)sc2c1CC(C)(C)SC2` as the compound, how does the “activity change, negative = inhibition” value read?
Answer: The value was inactive: -5.19%.

Question: For `CC(/C=N\NC(=O)CN1CCN(S(=O)(=O)c2ccc(C)cc2)CC1)=C\c1ccccc1`, which Potency is on record?
Answer: Its Potency is inconclusive: 23.1 µM [falling, single point].

Question: Which Potency does the source give for `COc1c(C)cc(Br)cc1C(=O)Nc1cccc(NC(=O)c2ccco2)c1` here?
Answer: The Potency was inconclusive: 20.6 µM [falling, single point].

Question: For `CC(C)(C)OC(=O)N1CCN(C(=O)c2[nH]cnc2C(=O)Nc2ccc(Cl)cc2)CC1`, which Potency is on record?
Answer: Its Potency is inconclusive: 11.6 µM [falling, partial curve].

Question: With `COc1ccc2nc(NC(=O)C3CCCO3)sc2c1` (stereo unspecified) as the compound, how does the Potency read?
Answer: The Potency was inconclusive: 0.731 µM [activator, partial curve, poor fit].

Question: With `CCC1CCCCN1S(=O)(=O)c1ccccc1[N+](=O)[O-]` (stereo unspecified) as the compound, how does the Potency read?
Answer: Its Potency is inconclusive: 32.6 µM [falling, partial curve, poor fit].

Question: For `O=C1COc2ccc(C(=O)/C=C/c3ccccc3)cc2N1`, which “activity change, negative = inhibition” value is on record?
Answer: The value was inactive: -13.7%.

Question: Which Potency does the source give for `Cc1ccc(Cl)cc1N1CCN(S(=O)(=O)c2c(C)[nH]c(=O)[nH]c2=O)CC1` here?
Answer: Its Potency is inconclusive: 13 µM [falling, partial curve].

Question: Which Potency does the source give for `Cc1cc(C)c(S(=O)(=O)c2cccc(Br)c2C)c(=O)[nH]1` here?
Answer: The Potency was inconclusive: 32.6 µM [falling, single point].

Question: For `CCN(CC)c1ccc(C(=O)Nc2cccc(F)c2)cc1`, which Potency is on record?
Answer: The Potency was inconclusive: 2.06 µM [activator, partial curve, poor fit].

Question: With `O=C1Cc2c(-c3ccccc3)cc(-c3cccc(Cl)c3)nc2-c2ccccc2N1` as the compound, how does the Potency read?
Answer: Its Potency is inconclusive: 3.66 µM [falling, full curve].

Question: With `Cc1sc(NC(=O)CSC2=NCCS2)nc1-c1ccccc1` as the compound, how does the Potency read?
Answer: Its Potency is inconclusive: 29.1 µM [falling, single point].

Question: Which Potency does the source give for `COc1cccc(CNc2ncnc3cc(Cl)ccc23)c1` here?
Answer: The Potency was inconclusive: 18.4 µM [falling, partial curve].

Question: Which Potency does the source give for `COc1ccc(NC(=O)COC(=O)c2cc(SC)ccc2Cl)c(OC)c1` here?
Answer: Its Potency is inconclusive: 1.16 µM [activator, partial curve].

Question: With `CCOc1ccc(N(CC(=O)Nc2nccs2)S(=O)(=O)c2c(C)[nH]c(=O)[nH]c2=O)cc1` as the compound, how does the Potency read?
Answer: The Potency was inconclusive: 6.51 µM [activator, partial curve].

Question: Which “activity change, negative = inhibition” value does the source give for `CSC1CCCCC1(O)CSc1nc2c(cc1C#N)CCCC2` (stereo unspecified) here?
Answer: The value was inactive: -6.46%.

Question: For `CCOC(=O)c1ccc(N2C(=O)CC(Sc3nc(C)cc(C)n3)C2=O)cc1` (stereo unspecified), which “activity change, negative = inhibition” value is on record?
Answer: Its value is inactive: 4.72%.

Question: With `Cc1ccc(NC(=O)c2ccc(CSc3nnc(C)s3)cc2)cc1` as the compound, how does the Potency read?
Answer: The Potency was inconclusive: 0.164 µM [activator, full curve, poor fit].

Question: With `Cc1ccccc1OCCOc1cccc(/C=N/NC(=O)Cc2nnc(N)s2)c1` as the compound, how does the Potency read?
Answer: Its Potency is inconclusive: 0.517 µM [activator, full curve, poor fit].

Question: For `COc1ccc([C@H]2CC(=O)C=C(c3cccc4c3Oc3ccccc3S4)C2)cc1`, which Potency is on record?
Answer: Its Potency is inconclusive: 32.6 µM [falling, single point].

Question: For `CCCCn1c(CN2CCN(C(=O)OCC)CC2)nc2c1c(=O)n(C)c(=O)n2C`, which Potency is on record?
Answer: The Potency was inconclusive: 0.82 µM [falling, partial curve, poor fit].

Question: For `COc1ccc(NC(=O)c2cc(C)no2)cc1`, which Potency is on record?
Answer: Its Potency is inconclusive: 20.6 µM [activator, partial curve, poor fit].

Question: For `O=C(c1ccco1)N1CCN(S(=O)(=O)c2ccc(Br)s2)CC1`, which “activity change, negative = inhibition” value is on record?
Answer: Its value is inactive: -12.6%.

Question: With `S=C(NCc1ccc2c(c1)OCO2)Nc1ccc(-c2nc3ccccc3[nH]2)cc1` as the compound, how does the Potency read?
Answer: The Potency was inconclusive: 29.1 µM [falling, single point].

Question: With `COc1ccc2c(c1)CCCC(Br)C2=O` (stereo unspecified) as the compound, how does the “activity change, negative = inhibition” value read?
Answer: The value was inactive: 13.4%.

Question: Which “activity change, negative = inhibition” value does the source give for `C#CCSc1nccc(-c2nn(-c3ccc(C)cc3)ccc2=O)n1` here?
Answer: The value was inactive: -15.1%.

Question: Which Potency does the source give for `CCc1cccc(N=c2c([N+](=O)[O-])nn(-c3ccc4c(c3)OCCO4)n2O)c1` here?
Answer: Its Potency is inconclusive: 29.1 µM [falling, single point].

Question: For `Cc1onc(-c2ccccc2)c1C(=O)NNC(=S)NC(=O)c1ccc(Br)cc1`, which Potency is on record?
Answer: The Potency was inconclusive: 18.4 µM [falling, single point].

Question: For `CCOc1ccccc1N1CCN(C(=S)Nc2ccc(S(N)(=O)=O)cc2)CC1`, which Potency is on record?
Answer: The Potency was inconclusive: 32.6 µM [falling, single point].

Question: With `COc1ccc(-n2nc(C(=O)NCC(=O)Nc3cc(OC)c(OC)c(OC)c3)c3ccccc3c2=O)cc1` as the compound, how does the Potency read?
Answer: The Potency was inconclusive: 25.9 µM [falling, single point].

Question: With `Cc1ccc(C)c(N2CCN(C(=O)Cc3cn(C)c4ccccc34)CC2)c1` as the compound, how does the Potency read?
Answer: The Potency was active: 20.6 µM.

Question: With `CCOC(=O)C1=C2c3cc(OC)c(OC)cc3CC(C)(C)N2C(=O)C1=O` as the compound, how does the Potency read?
Answer: The Potency was inconclusive: 0.0052 µM [activator, full curve, poor fit].

Question: For `COC(=O)CNC(=O)c1cc(-c2ccncc2)nc2c(C)c(Cl)ccc12`, which Potency is on record?
Answer: Its Potency is inconclusive: 2.06 µM [activator, partial curve, poor fit].
